# PubChem BioAssay AID504847 (National Center for Advancing Translational Sciences (NCATS), 2011)
# Sequences of proteins named here, by UniProt entry; tags and fusion partners are left off.
# UniProt P11473, whole entry, looked up: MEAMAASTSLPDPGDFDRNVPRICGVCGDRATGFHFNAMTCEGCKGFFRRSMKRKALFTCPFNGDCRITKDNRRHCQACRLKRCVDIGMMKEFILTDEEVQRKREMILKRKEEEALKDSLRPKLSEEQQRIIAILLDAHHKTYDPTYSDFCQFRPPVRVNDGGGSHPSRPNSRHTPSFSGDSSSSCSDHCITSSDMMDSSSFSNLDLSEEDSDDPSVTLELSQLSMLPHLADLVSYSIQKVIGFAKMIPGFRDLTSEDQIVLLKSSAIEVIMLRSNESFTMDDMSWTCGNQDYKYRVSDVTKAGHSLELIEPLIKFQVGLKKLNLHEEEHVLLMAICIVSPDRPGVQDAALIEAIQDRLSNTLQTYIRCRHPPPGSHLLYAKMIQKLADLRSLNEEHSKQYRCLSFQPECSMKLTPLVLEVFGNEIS
# About 3,700 (0.93%) of roughly 400,000 compounds were called active. Inconclusive results, whose numbers are uncertain, are shown with a selection of clear calls. Calls follow the shape of the dose curve; as a rule, active = well fitted inhibition curve with a large enough effect; inconclusive = small, poorly fitted or top-dose-only effect, or another doubt; inactive = no such curve, though single readings can be large or run the other way. A potency beside an inconclusive call is a rough fit, not a confirmed value.
# Molecular target: Vitamin D3 receptor (Homo sapiens) (UniProt P11473)
# Assay: Inhibitors of the vitamin D receptor (VDR): qHTS
# Settings: VDR-SRC2-3 peptide fluorescence polarization, 2 h; max response, negative = inhibition: stronger effect = lower value
# In short: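 Fluorescence polarization assay measuring small-molecule disruption of VDR binding to the coregulator peptide SRC2-3. Compounds were pin-transferred (23 nl) into the reagent mix and incubated 2 h at room temperature before reading.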
# % is scaled to controls: 0 for no effect and ±100 for the full control effect; potency is read from the fitted curve at half-maximal effect.
Compound,Potency,"max response, negative = inhibition"
CCc1ccc(NC(=O)CN2C(=O)C(=O)c3ccccc32)cc1,"inconclusive: 89.1 µM [inhibitor, partial curve, poor fit]",
COc1ccc(S(=O)(=O)Nc2ccc(O)c(Sc3nc4ccccc4s3)c2)cc1,"inconclusive: 44.7 µM [inhibitor, partial curve, poor fit]",
OCc1ccc(-c2ccc(-c3ccc(CO)s3)o2)s1,active: 10 µM,
CC(C)=C1C2CCC1C1C(=O)N(c3nc(-c4ccc(F)cc4)c(C)s3)C(=O)C21 (stereo unspecified),"inconclusive: 14.1 µM [inhibitor, partial curve, poor fit]",
Cc1cc(C)n(CCc2nc(-c3ccco3)cs2)n1,"inconclusive: 56.2 µM [inhibitor, partial curve, poor fit]",
CSc1cccc(NC(=O)COc2ccccc2)c1,,inactive: -21.5%
CC(C)OC(=O)Cc1nc2sc(-c3ccccc3)cc2c(=O)[nH]1,,inactive: -9.74%
Cc1ccccc1-n1c(SCC(=O)Nc2ccccc2)nc2nc3c(cc2c1=O)CCCC3,"inconclusive: 79.4 µM [inhibitor, single point]",
COc1ccccc1OCC(=O)Nc1ccc(S(=O)(=O)N2CCOCC2)cc1,,inactive: 5.08%
COc1ccc(NC(=O)c2ccc(-c3ccc(C)c4ccccc34)o2)cc1,,inactive: -0.18%
O=[N+]([O-])c1ccc(N/N=C2\CC3CC=CC23)cc1 (stereo unspecified),,inactive: 24.4%
O=C1SC(SC(=Nc2ccccc2)Nc2ccccc2)C(=O)N1c1ccccc1 (stereo unspecified),active: 89.1 µM,
c1csc(CNc2ccnc(-c3ccoc3)n2)c1,active: 22.4 µM,
COc1cc(N2C(=O)C=CC2=O)c(OC)cc1Cl,active: 28.2 µM,
NNC(=O)c1[nH]c2ccc([N+](=O)[O-])cc2c1-c1ccccc1,active: 79.4 µM,
O=S(=O)(c1ccc(OC(F)(F)F)cc1)N1CCC(O)(c2cccc(C(F)(F)F)c2)CC1,"inconclusive: 79.4 µM [inhibitor, partial curve, poor fit]",
COc1ccc(N2CCN(C(=O)c3cc4c(-c5ccccc5F)nn(C)c4s3)CC2)cc1,,inactive: -8.06%
CN(C)C(CNC(=O)c1ccc([N+](=O)[O-])cc1Cl)c1ccco1 (stereo unspecified),,inactive: -1.29%
[O-][N+](=Cc1ccccc1)c1ccc(Cl)cc1,"inconclusive: 56.2 µM [inhibitor, partial curve, poor fit]",
CC(=O)c1cccc([N+](=O)[O-])c1,,inactive: -8.01%
O=C1CS(=O)(=O)C2(C(=O)N(Cc3cccc(F)c3)c3ccccc32)N1c1ccccc1 (stereo unspecified),,inactive: -9.59%
COc1cccc(-c2ccc3ncnc(N4CCN(C)CC4)c3c2)c1,"inconclusive: 56.2 µM [inhibitor, partial curve]",
Cc1ccc(N2C(=O)C3C4C=CC(CNC(=S)N5CCN(c6ccccn6)CC5)(O4)C3C2=O)cc1 (stereo unspecified),active: 79.4 µM,
CC(C)NC(=O)N1CCCC2(CCN(C(=O)c3ccco3)CC2)C1,,inactive: 1.57%

Compound,Potency,"max response, negative = inhibition"
CCCCn1c(=O)[nH]c2nc3cc(N)ccc3nc2c1=O,"inconclusive: 89.1 µM [inhibitor, single point]",
COC(=O)c1ccc(COc2ccc(/C=C(\C#N)c3nc4ccccc4[nH]3)cc2OC)o1,,inactive: 17.4%
CCC(=O)N1CCc2cc(Br)cc(S(=O)(=O)NCCc3ccc(OC)c(OC)c3)c21,,inactive: -12%
Cc1[nH]n2c(=O)cc(-c3ccccc3Cl)nc2c1-c1ccccc1,,inactive: -20.9%
O=C(/C=C/c1ccccc1)NCCSCc1ccccc1,"inconclusive: 35.5 µM [inhibitor, full curve]",
O=C1NC2c3ccccc3CC2O1 (stereo unspecified),,inactive: -16.9%
Cc1ccc(CCC(=O)Nc2ccc(CC(=O)O)cc2)o1,active: 79.4 µM,
Fc1ccc(CN2CCN(C(=S)NCCc3ccccc3)CC2)c(Cl)c1,"inconclusive: 50.1 µM [inhibitor, partial curve, poor fit]",
C#CCOCCOCCOCCNc1nc(N2CCN(C(=O)Cn3cc(CC(C)O)nn3)CC2)nc(N2CCN(C(=O)[C@H]([C@@H](C)CC)n3cc(CCCCN)nn3)CC2)n1 (stereo partly specified),,inactive: -8.77%
O=C(/C=C/c1ccco1)N1CCN(S(=O)(=O)c2ccc(F)c(F)c2F)CC1,,inactive: -8.38%
O=c1nc(/C=C/c2cc([N+](=O)[O-])ccc2Cl)cc(C(F)(F)F)[nH]1,"inconclusive: 22.4 µM [inhibitor, full curve, poor fit]",
COc1ccccc1CCNC(=O)CC1C(=O)NCCN1CCCc1ccccc1 (stereo unspecified),,inactive: -3.9%
O=C1CSc2cc(Cl)ccc2N1,"inconclusive: 89.1 µM [inhibitor, single point]",
Cc1cc(=O)c2c(O)c3c(O)cc(O)c4c5c(O)cc(O)c6c(O)c7c(=O)cc(C)c8c1c2c(c34)c(c65)c78,"inconclusive: 8.91 µM [inhibitor, full curve, poor fit]",
Cc1cc(-c2onc3ccc(Cl)cc23)ccc1O,"inconclusive: 100 µM [inhibitor, single point]",
CCc1cc2c(=O)c(-c3cscn3)coc2c(CN(C)C)c1O,,inactive: 2.12%
CNc1nc(C)c([N+](=O)[O-])c(Nc2ccc(OC)cc2)n1,"inconclusive: 56.2 µM [inhibitor, partial curve, poor fit]",
CN(C)c1ccc(Nc2nc(N)c([N+](=O)[O-])c(N3CCOCC3)n2)cc1,"inconclusive: 89.1 µM [inhibitor, partial curve, poor fit]",
COc1ccc2[nH]c3c(=O)n(CCCCC(=O)NCCC(C)C)c(=S)[nH]c3c2c1,,inactive: -25.5%
CC1(C)Cc2cccc(OCC(=O)NCCOc3ccccc3)c2O1,"inconclusive: 28.2 µM [inhibitor, single point]",
COc1ccc2nc(N3C(=O)C(O)=C(C(=O)c4ccco4)C3c3ccc(C)o3)sc2c1 (stereo unspecified),"inconclusive: 89.1 µM [inhibitor, single point]",
N#CCc1ccc(Oc2ncccn2)cc1,"inconclusive: 50.1 µM [inhibitor, partial curve, poor fit]",
FC(F)(F)c1cc(CN2CCCC3(CCNCC3)C2)cc(C(F)(F)F)c1,"inconclusive: 50.1 µM [inhibitor, partial curve]",
O=C(NCCc1ccc(Cl)cc1)Nc1cccc(Cl)c1,,inactive: -1.4%

# Whole records, looked up by structure.
# `O=[N+]([O-])c1ccc(N/N=C2\CC3CC=CC23)cc1` (stereo unspecified) is listed with max response, negative = inhibition: inactive: 24.4%
# `CCc1ccc(NC(=O)CN2C(=O)C(=O)c3ccccc32)cc1` is listed with Potency: inconclusive: 89.1 µM [inhibitor, partial curve, poor fit]
# `COc1ccc(S(=O)(=O)Nc2ccc(O)c(Sc3nc4ccccc4s3)c2)cc1` is listed with Potency: inconclusive: 44.7 µM [inhibitor, partial curve, poor fit]
# `CC1(C)Cc2cccc(OCC(=O)NCCOc3ccccc3)c2O1` is listed with Potency: inconclusive: 28.2 µM [inhibitor, single point]

# Following part.

Compound,Potency,"max response, negative = inhibition"
Cn1c(O)c(N=NC(=O)Cc2c[nH]c3ccccc23)c2ccccc21,,inactive: -9.05%
CCc1c(C)sc(NC(=O)c2cc(-c3ccco3)on2)c1C#N,"inconclusive: 79.4 µM [inhibitor, single point]",
Cn1c(/C=C/c2ccc(Cl)cc2)nc2ccccc2c1=O,"inconclusive: 35.5 µM [inhibitor, partial curve, poor fit]",
CCCCCCCc1c(C#N)c(N)[nH]c(=S)c1C#N,"inconclusive: 79.4 µM [inhibitor, partial curve, poor fit]",
O=C(O)c1ccc(/C=C2/SC(=S)N(Cc3ccccc3)C2=O)cc1,"inconclusive: 14.1 µM [inhibitor, partial curve, poor fit]",
c1ccc(CNCCCNCCCCNCCCNCc2ccccc2)cc1,,inactive: -9.89%
CC(=O)c1cccc(NC(=O)/C=C/c2ccc([N+](=O)[O-])s2)c1,"inconclusive: 89.1 µM [inhibitor, single point]",
Cc1ccc(C2(C)NC(=O)N(CC(=O)Nc3nc(-c4ccccn4)cs3)C2=O)cc1 (stereo unspecified),"inconclusive: 56.2 µM [inhibitor, partial curve, poor fit]",
O=[N+]([O-])c1cc(-c2nc(-c3ccccc3)no2)ccc1N1CCCCC1,,inactive: 3.38%
CCc1c(C)sc(NC(=O)c2noc(C)c2[N+](=O)[O-])c1C#N,"inconclusive: 56.2 µM [inhibitor, partial curve, poor fit]",
O=C(Nc1ccc(S(=O)(=O)Nc2nccs2)cc1)c1cc(-c2ccccn2)nc2ccccc12,,inactive: -6.64%
CCOc1cc(C2NC(=O)CCC2[N+](=O)[O-])cc(Br)c1OC (stereo unspecified),"inconclusive: 89.1 µM [inhibitor, partial curve, poor fit]",
CCS(=O)(=O)N1CCC(C(=O)NCc2cccnc2)CC1,,inactive: 11.1%
COc1ccccc1N1CCN(C2CC(=O)N(c3ccc(Cl)cc3)C2=O)CC1 (stereo unspecified),,inactive: -1.91%
C=CCOc1ccccc1CN1CCCN(C)CC1,,inactive: -18.6%
COc1ccc(OCC(O)CNC(=O)c2cccs2)cc1 (stereo unspecified),"inconclusive: 89.1 µM [inhibitor, partial curve, poor fit]",
CN1C(=O)C2(OCCCO2)c2cc(Cl)ccc21,"inconclusive: 79.4 µM [inhibitor, single point]",
COc1ccc(N2CCN(c3c(S(=O)(=O)c4ccccc4)cnc4ccc(OC)cc34)CC2)cc1,,inactive: -21.1%
CCCC(=O)Nc1ccc2c(c1)nc(CCN1CCN(c3ccccn3)CC1)n2C,"inconclusive: 35.5 µM [inhibitor, partial curve, poor fit]",
COc1ccc2c(c1)CC/C(=C/c1ccccn1)C2=O,"inconclusive: 79.4 µM [inhibitor, partial curve, poor fit]",
O=C(CSc1ncnc2[nH]ncc12)Nc1nc(-c2ccc(F)c(F)c2)cs1,,inactive: 2.27%
O=C(Nc1ccc2ccccc2c1)[C@@H]1C[C@H]1[C@@H](NP(=O)(c1ccccc1)c1ccccc1)c1ccccc1,,inactive: -1.36%
N#CC1c2ccccc2C=CN1C(=O)N(c1ccccc1)c1ccccc1 (stereo unspecified),active: 70.8 µM,
